Values quoted from earlier work as cited in patent US4883661A, “Use of arginine as an lymphokine synergist” (priority 1987, dated 1989).

Details: given prior to or concomitantly with amino acids, glycine or ammonia; rats; cited from earlier work

Compound: NCCC[C@H](N)C(=O)O [ornithine]
- protection against toxic effects of hyperammonemia: share the "detoxifying" effects of arginine
